# Percent effect of library compounds

From ChEMBL document CHEMBL3988442, “University of Dundee, Small-Polar-MMV Screening Library” (2021).

A: 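Growth of Mycobacterium tuberculosis over 4 days (cholesterol / DPPC medium with tyloxapol); the read-out is not stated. Tested at 50 µM. Higher reads as more growth inhibition (inferred: compounds with an IC50 in retests scored well above the rest). Of about 69,000 compounds tested this way, about 370 (0.54%) reached 50% or more in at least one test.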
B: 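Growth of Mycobacterium tuberculosis over 3 days (7H9 medium with glucose and tyloxapol); the read-out is not stated. Tested at 50 µM. The record gives no direction; compounds that gave an IC50 in retests scored well above the rest, so higher reads as more growth inhibition. Size under these conditions: about 69,000 compounds, about 760 of them at 50% or above in at least one test.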

Values are the deposited “Percent Effect”, in %. The controls that fix the scale are not given in the record; negative values are as filed. This is an unselected part of the compounds tested. Two or more numbers in one place are separate tests of the same structure; such repeats can differ widely.

| # | Compound | A | B |
|---|---|---|---|
| 1 | `CC(C)CC(NC(=O)Nc1ccc(F)c(Cl)c1)C(=O)O` (centres undefined) | 8.272 | 4.658 and 0.4043 |
| 2 | `COc1cccc(Cn2ncnc2COC(C)C)c1` | -32.19 | 12.46 |
| 3 | `[H][C@@]12CN(C)C[C@]1([H])N(CCc1ccc(OC)cc1)C(=O)O2` | 0.301 | 11.84 |
| 4 | `O=C(O)C(F)(F)F.[H][C@@]12CCCO[C@]1([H])[C@H](N(C)C)CN2C(=O)Cc1ccsc1` | -23.04 | -46.65 |
| 5 | `Cc1noc(COCC(=O)N2CCCCC2c2nccs2)n1` (centres undefined) | 66.36 | 6.454 |
| 6 | `O=C(O)C(F)(F)F.[H][C@@]12C[C@H](C(=O)N(C)C)CN(Cc3ccc(F)cc3)[C@]1([H])CCO2` | -13 | 3.378 |
| 7 | `Cc1ccc(C(=O)N2Cc3c(CN(C)C)nn(C)c3C2)cc1C.O=C(O)C(F)(F)F` | 2.844 | 3.9 |
| 8 | `CC(=O)N1CCC(C(=O)N(C)[C@@H]2CCC[C@@H](N3CCCC3)[C@@H]2O)CC1` | 3.567 | 1.81 |
| 9 | `Cn1c(C2CC2)nc2c1CCN(Cc1nc(-c3ccsc3)no1)C2` | 32.37 | 33.15 and 34.29 |
| 10 | `CCOCCCn1c(NC(=O)c2cc(C)no2)nc2ccccc21` | -12.86 | -11.14 |
| 11 | `Cc1cc(NC(=O)NCC(C)N2CCc3ccccc32)no1` (centres undefined) | -18.14 | -4.634 |
| 12 | `O=C(NCCNc1ncccn1)C1CC(=O)N(CC2CC2)C1` (centres undefined) | -45.36 | -54.87 |
| 13 | `N#Cc1ncn(CCS(=O)(=O)c2ccc(Br)cc2)n1` | -31.07 | -4.83 and -26.66 |
| 14 | `COCCc1noc(-c2ccc(N[C@H]3CCCCNC3=O)nc2)n1` | -12.77 | 2.841 |
| 15 | `Cc1nc2c(c(N3CCC(O)(CN4CCCC4)CC3)n1)CCNCC2` | 6.013 | 11.09 |
| 16 | `CCC[C@@H]1CN(Cc2cnc3c(S(C)(=O)=O)cnn3c2)C[C@H]1N(C)C` | -17.47 | 1.952 and -0.6303 |
| 17 | `O=C(NCc1nn(-c2ccccc2)c2c1CCC2)NC1CC1` | 0.01332 | 3.743 |
| 18 | `CCC[C@@H]1CN(Cc2ccc(C(F)(F)F)nc2)C[C@H]1C(=O)O` | 14.88 | -8.447 and 2.008 |
| 19 | `O=C(CCc1cc2n(n1)CCN(Cc1ccncc1)C2)N1CCCC1` | -42.15 | -0.03043 |
| 20 | `CSc1nnc(CNC(=O)Nc2ccccc2Br)n1C` | 1.159 and 7.174 | -16.78 |
| 21 | `Cn1ccnc1CN1CCN(CC(O)c2ccccc2)CC1` (centres undefined) | 5.75 | 6.768 |
| 22 | `CCNS(=O)(=O)c1cnccc1N1CCN(CCO)CC1` | -2.359 | -8.162 |
| 23 | `CC(C)NC(=O)N1CCC[C@H]1C(=O)NCCCc1cccc(F)c1` | -9.595 | -0.1293 |
| 24 | `CCc1cnc(N)nc1NC(C)c1ccc(C)c(C)c1` (centres undefined) | 59.67 | 75.18 |
| 25 | `Cc1cc(=O)c2cc(F)ccc2n1CC(=O)O` | 0.428 | -2.873 |
| 26 | `CCc1nc(C)c([C@H]2CN(C)C[C@@H]2C(=O)Nc2ccccc2F)[nH]1` | -10.08 | -1.717 |
| 27 | `CNC(=O)CCc1cc(C)nc(C2CCN(CC(=O)N(C)C)CC2)c1` | -6.128 and -2.347 | -16.23 |
| 28 | `CCN1CCC2(CC1)C(=O)N(c1ccc(C)nc1)CCN2CC(C)C.O=C(O)C(F)(F)F` | -5.252 | -1.759 and -33.18 |
| 29 | `CC(C)c1ccc(-n2cc(O)c(C(=O)O)n2)cc1` | -9.402 | -8.651 |
| 30 | `O=C(c1ccc(-n2cnnc2)cc1)N1CCC(Nc2cccnn2)CC1` | 1.449 | 18.29 |
| 31 | `CO[C@H]1CCN(C(=O)c2ccc3[nH]nnc3c2)C[C@@]12CCCO2` | 1.234 | 6.605 |
| 32 | `CC(c1nc(C(C)(C)C)no1)N1CCN(c2ccc(C#N)cn2)CC1` (centres undefined) | 23.09 | 15.9 |
| 33 | `CN1CCC(N2CCC(c3ccccc3C(=O)O)C2)CC1` (centres undefined) | -18.44 and -6.698 | -21.04 |
| 34 | `COCCCNC(=O)NCc1cccn1Cc1ccccc1C` | -17.74 | -17.04 |
| 35 | `CCN(CC(=O)NC(C)C)C(=O)c1csc(Cc2ccccc2)n1` | -9.474 | 4.93 and -8.846 |
| 36 | `c1cc2c(cc1-c1noc3c1CN(C1CCSCC1)CC3)OCO2` | -14.49 | -2.45 |
| 37 | `CC(C)N1CCC(c2cnc(-c3cn[nH]c3)cn2)CC1` | -5.993 and -4.266 | -21.65 |
| 38 | `Cc1ccc(CN2Cc3nnn(C)c3C(COCC(=O)N(C)C)C2)s1.O=C(O)C(F)(F)F` (centres undefined) | 10.31 | 16.04 |
| 39 | `CC(Nc1ncnc2c1NC(=O)CN2)c1ccccn1` (centres undefined) | -3.323 | 4.592 |
| 40 | `O=C(O)C(F)(F)F.[H][C@@]12CCCO[C@]1([H])[C@@H](OCC(=O)N(C)C)CN2Cc1ccc(F)cc1` | -23.04 | 2.988 |
| 41 | `[H][C@@]12C[C@H](C(=O)N3CCOCC3)[C@@]([H])(CN(C(=O)NCC3CCCCC3)C1)O2` | -19.64 | -31.31 |
| 42 | `O=C(O)C(F)(F)F.O=C(O)C(F)(F)F.[H][C@@]12CCN(Cc3cnn(C)c3)[C@@]1([H])CCN2Cc1ccc2c(c1)OCO2` | -8.871 | -24.79 |
| 43 | `Cc1c(C(=O)NC(C)CC(=O)c2cccs2)cnn1C` (centres undefined) | -0.7322 | 2.17 |
| 44 | `CCc1cc(CN2CCCCC2c2ccc(F)cc2)on1` (centres undefined) | 26.81 | 26.08 |
| 45 | `CCn1nc(C)c2nc(C(C)C)nc(N3CCCCC3)c21` | -20.59 | -7.405 |
| 46 | `CN(C)c1ncccc1C(=O)N1CCCC1Cn1cccn1` (centres undefined) | -12.66 | -18.57 |
| 47 | `Cc1nn(C)c(N(C)C)c1CNCc1cccc(CN(C)C(C)C)c1` | 5.308 | 24.62 |
| 48 | `O=C(NC1CCN(c2ncccn2)CC1)c1cccc(-n2ccnc2)c1` | 13.26 | 20.12 |
| 49 | `Cc1ccc(C(=O)NCC(O)c2cccc(F)c2)c(=O)[nH]1` (centres undefined) | 11.76 | 21.52 |
| 50 | `CCc1noc(C(C)N2CCN(c3ccc(C#N)cn3)CC2)n1` (centres undefined) | -16.38 | 2.703 and -3.837 |
| 51 | `CNc1nc(CNC(=O)Nc2cccc(CC(F)(F)F)c2)cs1` | 8.446 | -6.013 |
| 52 | `O=C(O)C(F)(F)F.[H][C@]12CCN(Cc3ccc(F)cc3)C[C@@]1([H])OCCN(S(C)(=O)=O)C2` | 19.4 | 0.2386 and 13.66 |
| 53 | `O=C(CCOc1cccc(F)c1)N1CCCC(n2cncn2)C1` (centres undefined) | -6.674 | -1.974 |
| 54 | `COc1ccc2c(ccn2CCC(=O)O)c1` | -15.79 | -16.08 |
| 55 | `COC(=O)C1CCCN1C(=O)c1cc(CC(C)C)no1` (centres undefined) | -11.2 | 11.63 and 11.05 |
| 56 | `Cc1noc(C)c1CCC(=O)N1CCN(Cc2cscn2)CC1` | -1.096 | -15.6 |
| 57 | `NC(=O)C1CCN(C(=O)c2ccc(Cn3cc(Br)cn3)cc2)CC1` | -22.49 | -17.13 |
| 58 | `Cc1nc(C(C)N2Cc3ncccc3C2=O)cs1` (centres undefined) | 10.28 | 7.196 |
| 59 | `Cc1ccc(C)c(SCC(=O)Nc2cccc(C(=O)N(C)C)n2)c1` | -2.693 | -3.405 and -21.77 |
| 60 | `O=C(NCc1cn2c(n1)CN(Cc1cccnc1)CC2)C1CCC1.O=C(O)C(F)(F)F.O=C(O)C(F)(F)F` | 0.155 | -31.79 and -9.641 |

Once more, the final 5:

Compound	A	B
Cc1noc(C)c1CCC(=O)N1CCN(Cc2cscn2)CC1	-1.096	-15.6
NC(=O)C1CCN(C(=O)c2ccc(Cn3cc(Br)cn3)cc2)CC1	-22.49	-17.13
Cc1nc(C(C)N2Cc3ncccc3C2=O)cs1 (centres undefined)	10.28	7.196
Cc1ccc(C)c(SCC(=O)Nc2cccc(C(=O)N(C)C)n2)c1	-2.693	-3.405 and -21.77
O=C(NCc1cn2c(n1)CN(Cc1cccnc1)CC2)C1CCC1.O=C(O)C(F)(F)F.O=C(O)C(F)(F)F	0.155	-31.79 and -9.641